Experimental data taken from patent publication EP0378881B1 ([…] S.p.A., priority 1989, dated 1993).

Test: general procedure: Fmoc solid-phase peptide synthesis in flow; resin with 4-hydroxymethylphenoxyacetate handle
Conditions: whole synthesis, scale of the general procedure 1.5 g of resin per column (two columns)

## Gln-Tyr-Ile-Lys-Ala-Asn-Ser-Lys-Phe-Ile-Gly-Ile-Thr-Glu (QYIKANSKFIGITE; printed: Gln-Tyr-Ile-Lys-Ala-Asn-Ser-Lys-Phe-Ile-Gly-Ile-Thr-Glu)
  crude yield: Yield 93%
